Strings that start with PEPTIDE1 are HELM notation: dots part the residues, brackets hold end groups and non-standard residues. *: point of attachment. Cbz = O=C(OCc1ccccc1)*; Boc = CC(C)(C)OC(=O)*; OBn = c1ccc(CO*)cc1

The nature of one data set: general procedure: solution-phase peptide synthesis; DCC/HOBt. The conditions noted are these: coupling step.
Regarding Cbz-SD(OBn)GK(Cbz)-OBn, the step yield was found to be 43%.

With Boc-SD(OBn)GK(Cbz)-OBn, the step yield is listed as 52%.

For the substance Cbz-D(OBn)SD(OBn)GK(Cbz)-OBn, the step yield is given as 31%.

With Boc-D(OBn)SD(OBn)GK(Cbz)-OBn, the step yield is reported as 45.6%.

Consider Cbz-AD(OBn)SD(OBn)GK(Cbz)-OBn, for which the step yield worked out at 63.6%.

Still in this data set, the particulars now being: late stage modification step.
On to PEPTIDE1{D.S.D.G.K}$$$$V2.0, for which the step yield was determined as 52.3%.

“H Ser-Asp-Gly-Lys-OH (SDGK; printed: Ser-Asp-Gly-Lys-)” came in with a step yield of 32%.

In turn, PEPTIDE1{A.D.S.D.G.K}$$$$V2.0 came in with a step yield of 40%.

(Values after US5118669A (Hitachi Chemical Co., Ltd., priority 1989, dated 1992).)
